Results taken from patent US20080050387A1, “Non-Androgen Dependent Roles for Androgen Receptor and Non-Androgen Related Inhibitors of Androgen Receptor” (priority 2003, published 2008).
No constants are given. Whether binding was seen depends on the method and setting. For part of these data: Binding seen in cells or lysates may run through a third protein. Some results given as binding are weak or reduced against the parent protein; the word gives no strength.

Chains of the proteins cited; added tags and fusions are not shown. Lines headed by an entry give the natural chain unless they say otherwise; changes in a name come on top.
UniProt P10275: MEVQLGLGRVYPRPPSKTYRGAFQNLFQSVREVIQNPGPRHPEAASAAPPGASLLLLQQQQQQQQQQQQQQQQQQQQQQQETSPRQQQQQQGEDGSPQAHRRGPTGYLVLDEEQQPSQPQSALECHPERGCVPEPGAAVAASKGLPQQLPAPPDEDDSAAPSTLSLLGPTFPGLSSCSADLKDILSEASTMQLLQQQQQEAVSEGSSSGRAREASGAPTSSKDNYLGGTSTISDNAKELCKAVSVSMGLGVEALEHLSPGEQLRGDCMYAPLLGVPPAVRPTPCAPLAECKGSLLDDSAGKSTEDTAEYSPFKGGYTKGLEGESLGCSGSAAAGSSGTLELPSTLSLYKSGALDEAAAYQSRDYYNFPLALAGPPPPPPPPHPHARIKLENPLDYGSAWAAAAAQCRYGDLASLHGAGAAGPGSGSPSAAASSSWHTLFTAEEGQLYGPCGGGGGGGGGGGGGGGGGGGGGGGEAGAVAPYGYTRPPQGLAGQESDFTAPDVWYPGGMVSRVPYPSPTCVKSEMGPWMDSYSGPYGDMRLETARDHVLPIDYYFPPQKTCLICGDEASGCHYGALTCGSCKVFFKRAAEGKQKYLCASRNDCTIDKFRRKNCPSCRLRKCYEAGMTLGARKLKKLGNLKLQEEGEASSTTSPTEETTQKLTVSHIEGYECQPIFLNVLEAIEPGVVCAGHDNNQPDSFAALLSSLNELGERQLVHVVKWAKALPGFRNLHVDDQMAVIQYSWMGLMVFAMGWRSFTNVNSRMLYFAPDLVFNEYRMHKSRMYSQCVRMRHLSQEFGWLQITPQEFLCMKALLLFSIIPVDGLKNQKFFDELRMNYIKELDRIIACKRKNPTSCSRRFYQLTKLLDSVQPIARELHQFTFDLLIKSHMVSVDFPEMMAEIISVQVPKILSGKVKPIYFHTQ

Key:
[1] = biological target: androgen receptor (AR), full length (human) (UniProt P10275); assay: co-immunoprecipitation with anti-Flag antibody from 293T cells transfected with AR and Flag-hRad9, anti-AR blot
[2] = biological target: androgen receptor (AR), full length (human) (UniProt P10275); assay: mammalian two-hybrid and co-immunoprecipitation (FIG. 25)
[3] = biological target: AR ligand-binding domain (AR LBD) (human) (UniProt P10275); assay: GST pull-down: GST-hRad9 with 35S-labeled AR domains
[4] = biological target: AR ligand-binding domain (AR LBD) (human) (UniProt P10275); assay: GST pull-down: GST-hRad9 with 35S-labeled AR LBD, with or without DHT
[5] = biological target: AR ligand-binding domain (AR LBD) (human) (UniProt P10275); assay: summary of Example 4
[6] = biological target: AR DBD-LBD (human) (UniProt P10275); assay: GST pull-down: GST-hRad9 with 35S-labeled AR-DBD-LBD, with or without DHT
[7] = biological target: androgen receptor (AR), full length (human) (UniProt P10275); assay: co-immunoprecipitation of endogenous proteins from CWR22R cells with anti-AR antibody, anti-hRad9 blot
[8] = biological target: AR ligand-binding domain (AR LBD) (human) (UniProt P10275); assay: yeast two-hybrid (AH109), GAL4-AR-LBD + f-hRad9 fused to an activation domain, 10 nM DHT; weaker than with AR DBD-LBD
[9] = biological target: AR DBD-LBD (human) (UniProt P10275); assay: yeast two-hybrid (AH109), GAL4-AR-DBD-LBD + f-hRad9 fused to an activation domain, 10 nM DHT
[10] = biological target: AR DBD-LBD (human) (UniProt P10275); assay: yeast two-hybrid, liquid β-gal assay, bait GAL4 DBD-AR-DBD-LBD, DHT
[11] = biological target: VP16-AR containing the residues 37 to 919 (human) (UniProt P10275); assay: mammalian two-hybrid in PC-3 cells
[12] = biological target: AR ligand-binding domain (AR LBD) (human) (UniProt P10275); assay: restatement of the two-hybrid and pull-down results

Measured: binding

B1: human checkpoint protein hRad9, full length (protein)
chain: MKCLVTGGNVKVLGKAVHSLSRIGDELYLEPLEDGLSLRTVNSSRSAYACFLFAPLFFQQYQAATPGQDLLRCKILMKSFLSVFRSLAMLEKTVEKCCISLNGRSSRLVVQLHCKFGVRKTHNLSFQDCESLQAVFDPASCPHMLRAPARVLGEAVLPFSPALAEVTLGIGRGRRVILRSYHEEEADSTAKAMVTEMCLGEEDFQQLQAQEGVAITFCLKEFRGLLSFAESANLNLSIHFDAPGRPAIFTIKDSLLDGHFVLATLSDTDSHSQDLGSPERHQPVPQLQAHSTPHPDDFANDDIDSYMIAMETTIGNEGSRVLPSISLSPGPQPPKSPGPHSEEEDEAEPSTVPGTPPPKKFRSLFFGSILAPVRSPQGPSPVLAEDSEGEG
binds: [1] | [2] | [3] | [4] | [5] | [6] | [7]

B2: f-hRad9, fragment of hRad9 isolated from yeast (aa 327-391) (protein)
chain: LSPGPQPPKSPGPHSEEEDEAEPSTVPGTPPPKKFRSLFFGSILAPVRSPQGPSPVLAEDSEGEG
binds: [8] | [9] | [10]

B3: C-terminus of ARA54 (protein, UniProt Q9UBS8 361-474, looked up)
chain: RNEYLQADEANKRLLDQRYGKRVIQKALEEMESKEWLEKNSKSCPCCGTPIEKLDGCNKMTCTGCMQYFCWICMGSLSRANPYKHFNDPGSPCFNRLFYAVDVDDDIWEDEVED
binds: [11]

B4: C-terminus of hRad9 (aa 269-391) (protein)
chain: DSHSQDLGSPERHQPVPQLQAHSTPHPDDFANDDIDSYMIAMETTIGNEGSRVLPSISLSPGPQPPKSPGPHSEEEDEAEPSTVPGTPPPKKFRSLFFGSILAPVRSPQGPSPVLAEDSEGEG
binds: [12]
